Measurements as given in article doi:10.1101/2024.02.17.580811.

Sequences of proteins named here, by UniProt entry; tags and fusion partners are left off.
UniProt P24782: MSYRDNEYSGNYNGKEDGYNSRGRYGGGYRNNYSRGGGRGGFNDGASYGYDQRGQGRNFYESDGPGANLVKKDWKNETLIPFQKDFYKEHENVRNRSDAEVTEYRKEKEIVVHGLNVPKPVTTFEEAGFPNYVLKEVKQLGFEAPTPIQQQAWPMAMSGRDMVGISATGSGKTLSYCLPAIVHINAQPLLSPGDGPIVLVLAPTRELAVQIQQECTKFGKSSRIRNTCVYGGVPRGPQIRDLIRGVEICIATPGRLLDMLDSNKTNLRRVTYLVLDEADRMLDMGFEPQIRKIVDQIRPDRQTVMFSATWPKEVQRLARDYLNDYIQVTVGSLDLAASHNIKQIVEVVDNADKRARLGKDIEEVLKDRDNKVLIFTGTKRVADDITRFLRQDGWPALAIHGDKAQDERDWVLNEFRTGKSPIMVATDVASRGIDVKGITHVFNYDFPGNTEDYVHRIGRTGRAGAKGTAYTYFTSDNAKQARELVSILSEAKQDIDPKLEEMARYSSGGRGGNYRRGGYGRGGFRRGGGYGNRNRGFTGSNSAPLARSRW

T1: Srp2-HTP (S. pombe) (UniProt P78814)
T1 sequence: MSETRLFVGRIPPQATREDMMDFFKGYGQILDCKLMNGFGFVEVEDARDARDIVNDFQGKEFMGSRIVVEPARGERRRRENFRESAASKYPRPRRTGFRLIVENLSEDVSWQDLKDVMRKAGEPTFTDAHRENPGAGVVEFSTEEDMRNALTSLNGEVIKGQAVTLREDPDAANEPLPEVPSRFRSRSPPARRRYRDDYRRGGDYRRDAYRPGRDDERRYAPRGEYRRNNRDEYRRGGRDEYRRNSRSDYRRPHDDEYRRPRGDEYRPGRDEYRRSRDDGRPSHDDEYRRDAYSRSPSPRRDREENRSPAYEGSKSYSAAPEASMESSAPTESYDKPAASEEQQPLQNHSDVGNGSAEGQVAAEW

B1: Mlo3 (protein, UniProt Q09330 1-199)
chain: MSMELDQSLDAIIASKPKGGIRKRRARSNKPKPTKNAKPAVNTASALKSVISEESKIIVSNLPTDVTEAQVKELFVKSIGPCKRVSLAYGPNGRSKGIATIIFSRPGDATRAYEQYEGRLVDGTRKMKVEIILDPSRQLNSLAARVSPASNASATASKNGAKSSKRKTTRRRRTPNRPKKSAEELDKEMDDYFGSNEKE
B2: Mlo1 (homologue of human SARNP/CIP29) (protein, UniProt O74871 1-245)
chain: MSDYKSLKVAELREKLAEKGLSTAGNKAELVSRLTAATESNDENTSNNNATDLGDLAPPEDDIDWGDMENDTISTDVNKPAEPESKETSAPAAAVEIEKENESIISKETSQAPETSTGAEEHQETTEESKQSVSNEVSSPDVAKEQEKLIQRAKRFGIPVDDEQIKKAARAARFGIQQPLASSNNKNHNQSKNPQNRSNSRSKQRNKNAPPKSAPSKRKSNILDDPIEAEKARKRAERFGVAAKN
B3: mRNA export receptor Mex67 (protein, UniProt Q9Y8G3 1-596)
chain: MLRRKRERRNAVKENEMVIDTPLEKRRTPGKPRATREPPISVVITGHSKGSEDDLISFVWRKVKVRLMNISYSPASVTAVVKSQDFSRLNGLNGAAFAGDHLAIRRVDGASNVTQDYRKAKTKRSFRSVSAPSLSALATQAQRNVSKTLPQSTNETIEKLRQFLQTRYQPATKFLDLGNLQQDPLLKQMGILAEASTKSKMFPALMKVASLNFPDVISVSLSDNNLQSVTAVTTLAQTWPKLLNLSLANNRITSLSDLDPWSPKTKLPELQELVLVGNPIVTTFANRAMDYQREMVSRFPKLRLLDGNSINSEIIASQSTVPFPVYQSFFDKVETEQIVNSFLAAFFKGWDENRSALVNQLYSPNATFSISLNASNVRTNFSQKTDTKKWGAYKMKSRNLLYSQSQKESKSRLFNGHEEISNAVKSLPATAHDLSDRSQWVFDGWNLVLPSVGAAIKIVVHGQFEEPQNKRLLRSFDRTLLILPGGSTGILIINDLLVIRSFAGSLGWLPGQSSVRTSNNAMSASASKPSDIVQPRPEQAMLDTRQQIVLKIKAETGLNDYYAHMCCEQNNWDYNSALASFLELKSRNVIPAEAFS
B4: Rsc7 (protein, UniProt O94522 1-390)
chain: MDSTAGSDASTPTNHTVSSKKRRGRPPKGSYAAYGSSDDDDEEYSGRTRRRNRNTRPRVSAPSSSSTVVPKDLYSHRATLEDDELNFGVVDPEGEKKVNELGYLNGGREYRCRTFTCLGRGNRLYMLSTEPARAMGYRDSYLLFLKHRSLHKIIVDDSEKWDLIERNIIPHSYKGRAVGIVAARSIFREFGARIIVGGRRIVDDYWEGEFRARGFVEGELADPDDKLPPPGMPYNRNQYVAWHGASAVYHPQPSLEAQLPAAARKRKKEPPKDATWLFQHAKATAAYNNDITKYLVQKQDIGYFEPHTNLLHVPLNTQPTKTHWIQAKTGTECPAPKLDILVALNSDVAPQVSIANIPPSVYASCPLHVQEAIRKRQEQEIRSIRLNSMY
B5: Rsc9 (protein, UniProt Q9P7W8 1-780)
chain: MSQVIQGAVEEPVYSNKSLTNENDSFLSLIESFSQERGVPIDINPKIGRKPILLYELYKKVIKRGGYDAVSATEDGWTNIAEEFNQSDPARSAGILQNVYFKYLISWEIHDHWHLLLPPPSTLELSENRQNVLERVKVFNSCSPPKPTNPITIIDNDKTHSFKKFYKSLVKEDEENGIEKKINEAMNSSASQPLPNSTNFASTTFPSVPFHPLPVDSGLQKYIDRNSNLTPPALGAGVPGPPLLVRVALALKSQQDKEVDWAIGHLIKISFERHQEFKLERLPSLAECLVYSLGFQVTKAKQVSDLTDISLCMDRAIGIALVLRNSVLSVENAKHVAQTKLVISVLEASIRCAKTFNNLEFLHYCLDISEMISSYLHVEDEKNVFYLALCEFLNSSDYSILIATLRTLARLALNDRNNRLLQDLKSNVIANIIALVETDNEEIVAAALDFLYQYTTYRTNTSNLLASQEAWMLVDQLIRLMMYQAQERFMTVTIENSESNPAVKHEATSSISLPMEELQQLVAMREPERSVKWMRCCFEPSSDDYVLQTDIWQLYCSDMERAQGPNVMGISPADFIKVSSHAFYNARAMTVSTPQLPVEYVINGIKRRKFPTSVNGMRYQPCRWCLDSGKECGELLLGTPLLHSHLQEMHIFPQILETGKCRWSDCKYEIQRLTPASELSHYQLLSHIVTHLHDDSLETLVEGRKLSPSREFRIPLLLTAVDDQGDATGIALTATLVLRNLVRSKQGKMLFSAIESRVLEVSSLNPAVAPYVSEMLLGQI
B6: type I protein arginine N-methyltransferase (PRMT1) Rmt1 (enzyme, UniProt Q9URX7 1-340)
chain: MPGNTKKSADSGLTAKDYYFDSYSHWGIHEEMLKDDVRTLSYRDAIMQNPHLFRDKIVLDVGCGTGILSMFCARAGAKHVYGVDMSEIIHKAVQIVEVNKLSDRITLIQGKMEEIQLPVEKVDIIVSEWMGYFLLYESMLDTVLVARDRYLAPDGLLFPDRAQIQLAAIEDADYKSEKIGFWDDVYGFDFSPIKKDVWKEPLVDTVDRIAVNTNSCVILDLDLKTVKKEDLAFSSPFEITATRNDFVHAFLAWFDIEFSACHKPIKFSTGPFSRYTHWKQTVFYTHKDLTVKAGEYIRGTITCKPAEGNHRELDIDISYTFNPREPNREPVSEDLSYRMC
B7: Top2 (enzyme, UniProt P08096 1-1485)
chain: MSIDADFSDYEDEASGDENVLPNTTTKRKASTTSSKSRAKKASTPDLRQTSLTSMTASEQIPLVTNNGNGNSNVSTQYQRLTPREHVLRRPDTYIGSIEPTTSEMWVFDSEKNKLDYKAVTYVPGLYKIFDEIIVNAADNKVRDPNMNTLKVTLDPEANVISIYNNGKGIPIEIHDKEKIYIPELIFGNLLTSSNYDDNQKKVTGGRNGYGAKLCNIFSTEFVVETADKERMKKYKQTWYDNMSRKSEPVITSLKKPDEYTKITFKPDLAKFGMDKIDDDMVSIIKRRIYDMAGTVRETKVYLNNERISISGFKKYVEMYLASDTKPDEEPPRVIYEHVNDRWDVAFAVSDGQFKQVSFVNNISTIRGGTHVNYVANKIVDAIDEVVKKENKKAPVKAFQIKNYVQVFVNCQIENPSFDSQTKETLTTKVSAFGSQCTLSDKFLKAIKKSSVVEEVLKFATAKADQQLSKGDGGLRSRITGLTKLEDANKAGTKESHKCVLILTEGDSAKSLAVSGLSVVGRDYYGVFPLRGKLLNVREASHSQILNNKEIQAIKKIMGFTHKKTYTDVKGLRYGHLMIMTDQDHDGSHIKGLIINYLESSYPSLLQIPGFLIQFITPIIKCTRGNQVQAFYTLPEYEYWKEANNNGRGWKIKYYKGLGTSDHDDMKSYFSDLDRHMKYFHAMQEKDAELIEMAFAKKKADVRKEWLRTYRPGIYMDYTQPQIPIDDFINRELIQFSMADNIRSIPSVVDGLKPGQRKVVYYCFKRNLVHETKVSRLAGYVASETAYHHGEVSMEQTIVNLAQNFVGSNNINLLMPNGQFGTRSEGGKNASASRYLNTALSPLARVLFNSNDDQLLNYQNDEGQWIEPEYYVPILPMVLVNGAEGIGTGWSTFIPNYNPKDITANLRHMLNGEPLEIMTPWYRGFRGSITKVAPDRYKISGIINQIGENKVEITELPIRFWTQDMKEYLEAGLVGTEKIRKFIVDYESHHGEGNVHFNVTLTEAGMKEALNESLEVKFKLSRTQATSNMIAFDASGRIKKYDSVEDILTEFYEVRLRTYQRRKEHMVNELEKRFDRFSNQARFIHMIIEGELVVSKKKKKDLIVELKEKKFQPISKPKKGHLVDLEVENALAEEEQSGDVSQDEDSDAYNYLLSMPLWSLTYERYVELLKKKDEVMAELDALIKKTPKELWLHDLDAFEHAWNKVMDDIQREMLEEEQSSRDFVNRTKKKPRGKSTGTRKPRAIAGSSSSTAVKKEASSESKPSTTNRKQQTLLEFAASKEPEKSSDINIVKTEDNSHGLSVEENRISKSPGLDSSDSGKSRKRSQSVDSEDAGSKKPVKKIAASASGRGRKTNKPVATTIFSSDDEDDLLPSSLKPSTITSTKASAKNKGKKASSVKKQSPEDDDDDFIIPGSSSTPKASSTNAEPPEDSDSPIRKRPTRRAAATVKTPIYVDPSFDSMDEPSMQDDSFIVDNDEDVDDYDESD
B8: Rpb8 (protein, UniProt Q92399 1-125)
chain: MSESVLLDEIFTVTSVDKQKYQRVSRITAVSGQNDMNLTLDINSQIYPLEKDATFSLQITSNLNSPDLKEAADYIMYGKVYRVEEAKDEKVSVYVSFGGLLMAIEGSHRKLYRLSLDHVYLLLRR
B9: SR protein kinase Dsk1 (enzyme, UniProt P36616 1-544)
chain: MGSDGSSLSPKVSQPGHTEIVDHVSEKVITNGKNVNKKVNAEVDGKSMVEKVKTHEENAEDYHYGGYHPVYIGEEFHHRRYVVERKLGWGHFSTVWLAYDRAAKRRVALKVVRSAEHYRETSIDEIRILQKIREGDEKHLGKKHIISLLDYFVHRGPNGAHVCMVFEVLGENLLSLIQSYGHRGVPVGIVKQIAYQLLIALDYLHRECGIIHTDLKPENVLICIDQDALQHIEAPATTSSPTSNTSSSKTRNNTGYTAKAPIIKRGQSVDNSAQERKTFAKNPTKNSKPAGQVIPSSPFTSTLSRFPSLEGAVSEISLRDSQKHNSHPNSPFSSGDNSLILDGVNGSQEPVPKITVKIADLGNACWTRKHFTNDVQTRQYRSPEVILGCRWGASADCWSFACIIFELLTGDYLFDPRNGNSYSKEDDHIAQIIELLVNYPKQMALSGKHSRDLFNRRGELRNIHKLKFWPLKDVLEQKYHFSAELAQQISDFLSPMLCFDPAKRTNAGYMSNSPWLREVADPTFKIETTGATGEDVPGWATEIR

Target: Dbp2-HTP (S. pombe) (UniProt P24782)
Experiment: affinity purification with mass spectrometry

| Binder | binding |
| --- | --- |
| B1 | binds |
| B2 | binds |
| B3 | binds |
| B4 | binds |
| B5 | binds |
| B6 | binds |
| B7 | no binding |

Target: T1, Srp2-HTP (S. pombe)
Experiment: affinity purification with mass spectrometry

| Binder | binding |
| --- | --- |
| B8 | binds |
| B9 | binds |
| B7 | no binding |

Results are given in words; binding and its absence hold for the method and conditions named. In cells and extracts the contact can be indirect. These calls come from enrichment with a bait or labelling near it, and not all partners need be listed. No binding means not detected with the bait.
